# Reference: PubChem BioAssay
# Sequences of proteins named here, by UniProt entry; tags and fusion partners are left off.
# UniProt P08183, whole entry, looked up: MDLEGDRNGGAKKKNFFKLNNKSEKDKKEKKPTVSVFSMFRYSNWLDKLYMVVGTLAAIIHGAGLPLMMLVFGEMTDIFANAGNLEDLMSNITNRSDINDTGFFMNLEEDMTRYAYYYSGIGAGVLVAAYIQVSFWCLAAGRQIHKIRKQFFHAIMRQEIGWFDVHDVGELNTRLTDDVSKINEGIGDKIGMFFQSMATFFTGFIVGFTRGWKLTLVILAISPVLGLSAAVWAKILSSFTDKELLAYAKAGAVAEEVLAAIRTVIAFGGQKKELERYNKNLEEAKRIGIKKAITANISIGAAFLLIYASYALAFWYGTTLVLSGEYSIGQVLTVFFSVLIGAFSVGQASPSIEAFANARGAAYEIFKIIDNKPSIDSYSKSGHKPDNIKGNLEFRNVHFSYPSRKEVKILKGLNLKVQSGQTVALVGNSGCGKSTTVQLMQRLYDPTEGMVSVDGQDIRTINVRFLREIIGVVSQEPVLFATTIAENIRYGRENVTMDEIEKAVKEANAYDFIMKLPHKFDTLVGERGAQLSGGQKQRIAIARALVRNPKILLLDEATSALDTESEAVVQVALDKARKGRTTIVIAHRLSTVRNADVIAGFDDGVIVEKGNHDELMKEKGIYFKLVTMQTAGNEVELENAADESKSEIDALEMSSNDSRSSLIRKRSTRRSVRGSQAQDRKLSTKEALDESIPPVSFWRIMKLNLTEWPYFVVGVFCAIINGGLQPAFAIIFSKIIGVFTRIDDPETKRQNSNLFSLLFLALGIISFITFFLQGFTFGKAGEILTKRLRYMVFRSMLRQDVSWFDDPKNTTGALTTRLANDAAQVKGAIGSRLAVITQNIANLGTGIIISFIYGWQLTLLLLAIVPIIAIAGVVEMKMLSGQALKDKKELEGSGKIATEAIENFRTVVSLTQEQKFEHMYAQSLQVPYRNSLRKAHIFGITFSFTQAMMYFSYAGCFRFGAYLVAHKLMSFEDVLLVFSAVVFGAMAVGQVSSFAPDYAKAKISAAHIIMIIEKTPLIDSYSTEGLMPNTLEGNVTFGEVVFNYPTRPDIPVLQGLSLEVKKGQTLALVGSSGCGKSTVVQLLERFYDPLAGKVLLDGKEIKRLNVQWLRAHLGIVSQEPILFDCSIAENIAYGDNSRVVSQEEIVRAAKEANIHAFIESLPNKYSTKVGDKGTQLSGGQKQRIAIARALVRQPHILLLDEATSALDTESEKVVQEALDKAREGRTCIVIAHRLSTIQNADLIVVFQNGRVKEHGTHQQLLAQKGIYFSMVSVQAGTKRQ
# The shares of active, inactive and inconclusive entries below differ from those in the screen. For some of these results: Potencies of inconclusive entries are doubtful fits and often do not repeat. Calls of active or inactive are those of the source. Unless noted, the limit is not given here; nearly all actives have AC50 up to about 26 µM.
# Legend:
# [1] = growth inhibition of DIPG glioma cells, dose response, cell-based, SU-DIPG-XVII, MIPE5.0, CellTiter-Glo, qHTS (AID 1347060); settings: SU-DIPG-XVII viability, CellTiter-Glo ATP luminescence;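 as to AC50: cells exposed to compound for 48 hours before viability readout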
# [2] = growth inhibition of DIPG glioma cells, dose response, cell-based, SU-DIPG-XIII, MIPE4.0, CellTiter-Glo, qHTS (AID 1347061; cut-off not given, nearly all actives have AC50 up to about 37 µM;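 also: cells exposed to compound for 48 hours before readout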); settings: SU-DIPG-XIII viability, CellTiter-Glo ATP luminescence
# [3] = growth inhibition of DIPG glioma cells, dose response, cell-based, JHH-DIPG-1, MIPE4.0, CellTiter-Glo, qHTS (AID 1347062; cut-off not given, nearly all actives have AC50 up to about 27 µM;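 as to AC50: cells exposed to compound for two days before readout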); settings: JHH-DIPG-1 viability, CellTiter-Glo ATP luminescence
# [4] = growth inhibition of DIPG glioma cells, dose response, cell-based, SU-DIPG-IV, MIPE4.0, CellTiter-Glo, qHTS (AID 1347063; cut-off not given, nearly all actives have AC50 up to about 30 µM;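 also: compound exposure lasted 48 hours before the viability readout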); settings: SU-DIPG-IV viability, CellTiter-Glo ATP luminescence
# [5] = growth inhibition of DIPG glioma cells, dose response, cell-based, SU-DIPG-XIII, MIPE5.0, CellTiter-Glo, qHTS (AID 1347064; cut-off not given, nearly all actives have AC50 up to about 23 µM;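 as to AC50: cells exposed to compound for 48 hours before the viability read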); settings: SU-DIPG-XIII viability, CellTiter-Glo ATP luminescence
# [6] = viability loss in pontine glioma line – cell-based, SU-DIPG-XXV, MIPE5.0, CellTiter-Glo, qHTS, dose response (AID 1347065); settings: CellTiter-Glo ATP luminescence;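 also: cells exposed to compound for 48 hours before ATP readout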
# [7] = SU-DIPG-VI glioma cell viability, MIPE4.0 library, CellTiter-Glo luminescence, qHTS (AID 1347066; cut-off not given, nearly all actives have AC50 up to about 30 µM;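 also: cells exposed to compound for 48 hours before readout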); settings: CellTiter-Glo ATP luminescence
# [8] = JHH-DIPG-1 glioma cell viability, MIPE5.0 library, CellTiter-Glo luminescence, qHTS (AID 1347067); settings: JHH-DIPG-1 glioma viability, CellTiter-Glo ATP luminescence;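 also: cells exposed to compound for 48 hours before readout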
# [9] = SU-DIPG-XXV glioma cell viability, MIPE5.0 library, qHTS (AID 1347068; cut-off not given, nearly all actives have IC50 up to about 30 µM;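 as to IC50: cells exposed to compound for 48 hours before viability readout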)
# [10] = molecular target: ATP-dependent translocase ABCB1 (Homo sapiens) (UniProt P08183); assay: MDR1 (ABCB1) efflux transporter inhibition, cell-based (AID 377; in the data active = fluorescence slope change above about 50%; inconclusive = mostly about 31% to 49%); settings: MDR1-expressing cells, fluorescent substrate accumulation slope; stronger effect = higher value; concentration not given here
# [11] = inhibitors of polyQ aggregate elongation, biochemical, solid-phase synthetic aggregates, QA3 (AID 1585; call rule not given here); settings: biotin-polyQ incorporation, at 100 µM, stronger effect = higher value
# [12] = polyglutamine aggregation reduction, turbidity readout, qthio, single concentration 25 µM screen (AID 1588; call rule not given here); settings: at 25 µM, stronger effect = lower value
# [13] = protection of motor neurons from glutamate death, cell-based, TUNEL DNA degradation staining, MNGlu (AID 1594; call rule not given here); settings: glutamate-induced death, at 1 µM, stronger effect = higher value
# [14] = enhancers of SMN2 over SMN1 splicing, cell-based, SMN2/SMN1 luciferase reporters (AID 1598; call rule not given here); settings: SMN2 vs SMN1 luciferase splicing reporter cells; at 10 µM; stronger effect = higher value
smiles,measurement,setting,value
O=c1[nH]c(=O)n([C@H]2C[C@H](O)[C@@H](CO)O2)cc1F,AC50,[1],inconclusive: 4.17 µM [cytotoxic]
same,AC50,[2],active: 13.2 µM
same,AC50,[3],active: 1.48 µM
same,AC50,[4],inconclusive: 18.7 µM [cytotoxic]
same,AC50,[5],inconclusive: 3.72 µM [cytotoxic]
same,outcome,[6],inactive
same,AC50,[7],inconclusive: 18.7 µM [cytotoxic]
same,AC50,[8],inconclusive: 9.34 µM [cytotoxic]
same,outcome,[9],inactive
Nc1ccc(S(N)(=O)=O)cc1,fluorescence slope change,[10],inconclusive: 46%
same,inhibition,[11],inconclusive: -3.03%
same,aggregation (% of control),[12],inconclusive: 111%
same,protection,[13],inconclusive: 13%
same,SMN2/SMN1 luciferase ratio,[14],inconclusive: 0.89
same,outcome,[1],inactive
same,outcome,[2],inactive
same,outcome,[3],inactive
same,outcome,[4],inactive
same,outcome,[5],inactive
same,outcome,[6],inactive
same,outcome,[7],inactive
same,outcome,[8],inactive
same,outcome,[9],inactive
CCc1cncnc1N1CCN(Cc2nc3ccc(C(F)(F)F)cc3[nH]2)CC1,AC50,[1],inconclusive: 14.8 µM [cytotoxic]
same,AC50,[2],inconclusive: 16.6 µM [cytotoxic]
same,AC50,[3],inconclusive: 16.6 µM [cytotoxic]
same,AC50,[4],inconclusive: 16.6 µM [cytotoxic]
same,AC50,[5],inconclusive: 18.6 µM [cytotoxic]
same,AC50,[6],inconclusive: 23.5 µM [cytotoxic]
same,AC50,[7],inconclusive: 33.2 µM [cytotoxic]
same,AC50,[8],inconclusive: 11.8 µM [cytotoxic]
same,IC50,[9],inconclusive: 23.5 µM [cytotoxic]
O=C(NCc1ccncc1)C12C[C@H]3C[C@@H](C1)CC(c1ccc(Cl)cc1)(C3)C2,AC50,[1],inconclusive: 23.5 µM [cytotoxic]
same,AC50,[2],active: 14.8 µM
same,AC50,[3],inconclusive: 13.2 µM [cytotoxic]
same,AC50,[4],inconclusive: 16.6 µM [cytotoxic]
same,AC50,[5],inconclusive: 0.00186 µM
same,AC50,[6],inconclusive: 37.2 µM [cytotoxic]
same,AC50,[7],inconclusive: 0.059 µM [cytotoxic]
same,AC50,[8],inconclusive: 14.8 µM [cytotoxic]
same,IC50,[9],inconclusive: 26.3 µM [cytotoxic]
Cc1ccc(NC(=O)c2ccc(CN3CCN(C)CC3)cc2)cc1Nc1nc(-c2cccnc2)cs1,AC50,[1],inconclusive: 33.2 µM [cytotoxic]
same,AC50,[2],inconclusive: 4.69 µM [cytotoxic]
same,AC50,[3],inconclusive: 29.6 µM [cytotoxic]
same,AC50,[4],inconclusive: 16.6 µM [cytotoxic]
same,AC50,[5],inconclusive: 37.2 µM [cytotoxic]
same,AC50,[6],inconclusive: 18.6 µM [cytotoxic]
same,AC50,[7],inconclusive: 33.2 µM [cytotoxic]
same,AC50,[8],inconclusive: 37.2 µM [cytotoxic]
same,IC50,[9],inconclusive: 37.2 µM [cytotoxic]
CCC(=O)N[C@H]1CC[C@H](C(=O)N(C)c2ccc(-c3nc4ccccc4o3)cc2)C1,AC50,[1],inconclusive: 7.42 µM [cytotoxic]
same,AC50,[2],inconclusive: 2.09 µM [cytotoxic]
same,AC50,[3],inconclusive: 13.2 µM [cytotoxic]
same,AC50,[4],inconclusive: 29.6 µM [cytotoxic]
same,AC50,[5],inconclusive: 0.0525 µM [cytotoxic]
same,AC50,[6],inconclusive: 0.742 µM [cytotoxic]
same,outcome,[7],inactive
same,outcome,[8],inactive
same,IC50,[9],inconclusive: 13.2 µM [cytotoxic]
CCC(C)(C)c1ccc(CC(C)CN2C[C@@H](C)O[C@@H](C)C2)cc1 (stereo not given in full),AC50,[1],inconclusive: 26.3 µM [cytotoxic]
same,AC50,[2],inconclusive: 37.2 µM [cytotoxic]
same,outcome,[3],inactive
same,AC50,[4],inconclusive: 0.00118 µM
same,AC50,[5],inconclusive: 33.2 µM [cytotoxic]
same,AC50,[6],inconclusive: 33.2 µM [cytotoxic]
same,AC50,[7],inconclusive: 33.2 µM [cytotoxic]
same,AC50,[8],inconclusive: 20.9 µM [cytotoxic]
same,IC50,[9],inconclusive: 5.9 µM
COc1cccc(-c2ccc(NC(=O)C3=C(C(=O)O)CCC3)c(F)c2)c1,AC50,[1],inconclusive: 0.0742 µM [cytotoxic]
same,AC50,[2],inconclusive: 14.8 µM [cytotoxic]
same,AC50,[3],inconclusive: 26.4 µM [cytotoxic]
same,AC50,[4],inconclusive: 37.2 µM [cytotoxic]
same,outcome,[5],inactive
same,outcome,[6],inactive
same,AC50,[7],inconclusive: 11.8 µM [cytotoxic]
same,AC50,[8],inconclusive: 1.66 µM [cytotoxic]
same,outcome,[9],inactive
CCOC(=O)C1=C(C)NC2=C(C(=O)CC(C)(C)C2)C1c1ccc(-c2ccccc2)cc1 (stereo not given),AC50,[1],inconclusive: 18.6 µM [cytotoxic]
same,outcome,[2],inactive
same,AC50,[3],inconclusive: 23.5 µM [cytotoxic]
same,AC50,[4],active: 14.8 µM
same,AC50,[5],inconclusive: 0.0525 µM [cytotoxic]
same,AC50,[6],active: 23.5 µM
same,AC50,[7],inconclusive: 23.5 µM [cytotoxic]
same,AC50,[8],inconclusive: 23.5 µM [cytotoxic]

# Exported tab-delimited: entries from further up
smiles	measurement	setting	value
CCc1cncnc1N1CCN(Cc2nc3ccc(C(F)(F)F)cc3[nH]2)CC1	AC50	[4]	inconclusive: 16.6 µM [cytotoxic]
O=C(NCc1ccncc1)C12C[C@H]3C[C@@H](C1)CC(c1ccc(Cl)cc1)(C3)C2	AC50	[6]	inconclusive: 37.2 µM [cytotoxic]
same	IC50	[9]	inconclusive: 26.3 µM [cytotoxic]
CCC(=O)N[C@H]1CC[C@H](C(=O)N(C)c2ccc(-c3nc4ccccc4o3)cc2)C1	AC50	[2]	inconclusive: 2.09 µM [cytotoxic]
CCC(C)(C)c1ccc(CC(C)CN2C[C@@H](C)O[C@@H](C)C2)cc1 (stereo not given in full)	AC50	[8]	inconclusive: 20.9 µM [cytotoxic]
COc1cccc(-c2ccc(NC(=O)C3=C(C(=O)O)CCC3)c(F)c2)c1	AC50	[8]	inconclusive: 1.66 µM [cytotoxic]
